{"sequences": {"note": "Amino acid sequences for entries named in this document (tags omitted).", "UniProt Q8TD16": "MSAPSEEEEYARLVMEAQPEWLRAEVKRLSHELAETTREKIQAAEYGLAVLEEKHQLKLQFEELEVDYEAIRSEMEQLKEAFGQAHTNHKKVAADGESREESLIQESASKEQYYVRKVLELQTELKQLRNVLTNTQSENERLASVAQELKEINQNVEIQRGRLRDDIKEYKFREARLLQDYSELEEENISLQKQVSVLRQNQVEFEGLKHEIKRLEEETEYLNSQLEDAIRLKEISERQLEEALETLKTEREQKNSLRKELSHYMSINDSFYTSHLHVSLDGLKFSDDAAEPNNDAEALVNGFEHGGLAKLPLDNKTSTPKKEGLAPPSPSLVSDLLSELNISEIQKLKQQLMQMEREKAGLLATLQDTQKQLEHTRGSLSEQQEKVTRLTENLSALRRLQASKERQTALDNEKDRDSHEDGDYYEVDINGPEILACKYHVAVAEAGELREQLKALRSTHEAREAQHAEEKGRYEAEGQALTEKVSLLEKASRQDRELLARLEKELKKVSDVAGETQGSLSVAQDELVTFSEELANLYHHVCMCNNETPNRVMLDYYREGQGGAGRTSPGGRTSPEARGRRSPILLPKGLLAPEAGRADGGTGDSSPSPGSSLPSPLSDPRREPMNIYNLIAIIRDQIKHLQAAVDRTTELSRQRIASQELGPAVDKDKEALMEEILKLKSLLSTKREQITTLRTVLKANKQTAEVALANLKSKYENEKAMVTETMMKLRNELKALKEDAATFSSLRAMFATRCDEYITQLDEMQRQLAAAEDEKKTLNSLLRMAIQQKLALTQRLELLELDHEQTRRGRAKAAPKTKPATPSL", "UniProt O00571": "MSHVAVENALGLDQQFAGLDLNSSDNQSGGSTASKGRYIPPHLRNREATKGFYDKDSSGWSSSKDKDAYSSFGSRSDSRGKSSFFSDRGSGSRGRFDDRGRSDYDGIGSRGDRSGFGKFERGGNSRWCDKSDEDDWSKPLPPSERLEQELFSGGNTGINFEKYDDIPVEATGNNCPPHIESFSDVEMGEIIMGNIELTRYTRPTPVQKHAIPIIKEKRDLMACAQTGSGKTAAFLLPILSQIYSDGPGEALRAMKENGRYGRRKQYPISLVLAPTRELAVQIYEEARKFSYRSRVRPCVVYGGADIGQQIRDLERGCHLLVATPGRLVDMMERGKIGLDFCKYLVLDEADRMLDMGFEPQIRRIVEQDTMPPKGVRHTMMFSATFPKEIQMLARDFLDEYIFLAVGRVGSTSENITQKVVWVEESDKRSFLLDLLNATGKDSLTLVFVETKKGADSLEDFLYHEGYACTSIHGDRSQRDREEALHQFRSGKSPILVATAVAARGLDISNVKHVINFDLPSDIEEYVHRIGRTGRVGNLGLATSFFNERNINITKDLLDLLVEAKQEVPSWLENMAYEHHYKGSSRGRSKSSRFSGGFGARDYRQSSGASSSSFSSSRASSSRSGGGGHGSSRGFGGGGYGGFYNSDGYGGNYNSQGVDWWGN", "UniProt P42224": "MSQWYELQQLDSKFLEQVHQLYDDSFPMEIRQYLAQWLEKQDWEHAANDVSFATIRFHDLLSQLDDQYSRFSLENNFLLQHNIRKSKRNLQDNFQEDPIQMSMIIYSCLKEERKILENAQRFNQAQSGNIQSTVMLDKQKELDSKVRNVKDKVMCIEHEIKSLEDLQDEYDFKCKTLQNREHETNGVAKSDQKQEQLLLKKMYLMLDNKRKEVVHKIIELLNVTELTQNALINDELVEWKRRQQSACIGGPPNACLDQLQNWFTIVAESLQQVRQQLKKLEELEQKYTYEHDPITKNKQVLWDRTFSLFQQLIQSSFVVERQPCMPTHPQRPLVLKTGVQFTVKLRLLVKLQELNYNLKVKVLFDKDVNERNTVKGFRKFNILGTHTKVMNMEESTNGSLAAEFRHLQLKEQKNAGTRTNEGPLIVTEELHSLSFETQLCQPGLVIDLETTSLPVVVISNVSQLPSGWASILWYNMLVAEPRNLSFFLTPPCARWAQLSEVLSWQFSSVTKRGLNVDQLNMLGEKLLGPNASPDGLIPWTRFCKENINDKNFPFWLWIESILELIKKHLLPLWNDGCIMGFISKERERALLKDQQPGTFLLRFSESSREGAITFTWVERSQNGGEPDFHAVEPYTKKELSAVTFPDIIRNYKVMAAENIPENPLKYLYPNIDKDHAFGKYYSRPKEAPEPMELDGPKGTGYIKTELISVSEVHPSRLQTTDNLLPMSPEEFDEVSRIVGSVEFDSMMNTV", "UniProt O75821": "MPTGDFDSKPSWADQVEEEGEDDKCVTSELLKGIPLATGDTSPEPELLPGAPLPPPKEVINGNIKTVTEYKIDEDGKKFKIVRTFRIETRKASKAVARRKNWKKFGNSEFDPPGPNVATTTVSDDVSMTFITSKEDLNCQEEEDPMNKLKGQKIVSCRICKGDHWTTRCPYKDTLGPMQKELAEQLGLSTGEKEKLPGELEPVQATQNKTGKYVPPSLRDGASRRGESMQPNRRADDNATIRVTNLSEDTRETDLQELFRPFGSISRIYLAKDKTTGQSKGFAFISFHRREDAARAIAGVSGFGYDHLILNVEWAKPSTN"}, "source": "paper PMC10575931", "note": "These are yes or no findings as the source states them, for the method shown. In cells and extracts the contact can be indirect. A yes stands for co-enrichment or nearness to the bait. Other partners may have been found."}
{"target": "FLAG-tagged BICD2, full length (UniProt Q8TD16)", "test": "affinity purification with mass spectrometry; HEK293T transfected with mock or FLAG-tagged BICD2; co-immunoprecipitation lysis buffer; anti-FLAG M2 beads at 4 °C overnight; eluted with 3×FLAG peptide; silver-stained gel segments analysed by mass spectrometry"}
{"substance": "DDX3X, endogenous (from UniProt O00571 1-662)", "binding": "binds"}
{"substance": "STAT1, endogenous (from UniProt P42224 1-750)", "binding": "binds"}
{"substance": "EIF3G, endogenous (from UniProt O75821 1-320)", "binding": "binds"}
